# Values from PubChem BioAssay AID1259405 (NCATS, 2018)
# Screen: 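Silenced genes that increase secreted GFP made by CHO cells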 (primary screen)
# System: Chinese hamster CHO-K1 ovary cells with stable secreted eGFP expression
# Knock-down reagent: single siRNA against mouse genes, 0.8 pmol siRNA per well (2 µl of 400 nM stock)
# Timing: 3 days
# Read-out: 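Percent of the per-plate non-targeting control median for intracellular GFP per well by laser scanning cytometry and for cell viability by ATP luminescence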
# Reading the numbers: GFP, % of control: higher = more GFP per well, higher productivity; viability (ATP), % of control: higher = more viable cells (more ATP)
# Active means: 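a knock-down is called active if GFP reaches 120% or more of non-targeting control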
# Shown is an unselected part of about 50,000 deposited reagents. About 4,000 of them (8%) were called active. 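Mouse siRNA library applied to hamster cells; one well for each siRNA.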 A number with no mark means an inactive call. Reagents against one gene are numbered here. No sequences are given here.
gene,siRNA no.,"GFP, % of control","viability (ATP), % of control"
Or5b99,1,53.6,73.6
Or5b99,2,103,85.4
Or5b99,3,55.6,43.4
Snx31,1,67.1,83.6
Snx31,2,88.3,93
Snx31,3,87.4,104
Asb12,1,74.6,66.3
Asb12,2,53.8,68.7
Asb12,3,39.2,57.3
Hdlbp,1,113,113
Hdlbp,2,133 (active),92.6
Hdlbp,3,79.6,47.8
Fam151a,1,86.7,81.6
Fam151a,2,104,70.8
Fam151a,3,165 (active),150
D16Ertd472e,1,64.7,84.9
D16Ertd472e,2,103,80.6
D16Ertd472e,3,98.5,64.1
Phf23,1,38.9,57.8
Phf23,2,91,82.7
Phf23,3,93.8,74.5
Cd209b,1,82.1,66.7
Cd209b,2,95.4,94.3
Cd209b,3,92.4,105
Syn1,1,23.2,69.7
Syn1,2,101,103
Fgf18,1,81.4,58
Fgf18,2,19.5,24.3
Fgf18,3,78.3,47.3
Tmem169,1,37.5,64.8
Tmem169,2,58.3,58.8
Tmem169,3,90.2,81

Laid out differently: entries from further up
Or5b99 #2
- GFP, % of control: 103
- viability (ATP), % of control: 85.4

Or5b99 #3
- GFP, % of control: 55.6
- viability (ATP), % of control: 43.4

Snx31 #1
- GFP, % of control: 67.1
- viability (ATP), % of control: 83.6

Snx31 #2
- GFP, % of control: 88.3
- viability (ATP), % of control: 93

Snx31 #3
- GFP, % of control: 87.4
- viability (ATP), % of control: 104

Asb12 #1
- GFP, % of control: 74.6
- viability (ATP), % of control: 66.3

Asb12 #2
- GFP, % of control: 53.8
- viability (ATP), % of control: 68.7

Asb12 #3
- GFP, % of control: 39.2
- viability (ATP), % of control: 57.3

Hdlbp #1
- GFP, % of control: 113
- viability (ATP), % of control: 113

The listing continues:
gene,siRNA no.,"GFP, % of control","viability (ATP), % of control"
Fzd3,1,62,92.1
Fzd3,2,62.4,67.9
Or9s23,1,88.8,92
Or9s23,2,81.5,89.7
Or9s23,3,54.1,36.4
Kcng4,1,46.9,40.7
Kcng4,2,53.6,58.3
Kcng4,3,98.9,93.6
Gm11961,1,90.5,62.8
Gm11961,2,137 (active),54.2
Gm11961,3,112,80.5
Glis3,1,76.6,93
Glis3,2,105,84.8
Aknad1,1,87.3,68.1
Aknad1,2,30,54.5
Aknad1,3,64.5,59.5
Nags,1,117,102
Nags,2,175 (active),83.7
Nags,3,0.205,95.1
Nags,4,132 (active),72.8
Nags,5,96.6,84.8
Nags,6,175 (active),83.7
Or2a51,1,58.3,75.9
Or2a51,2,97.2,72.2
Or2a51,3,144 (active),153
Cyb5r3,1,80.7,107
Cyb5r3,2,47.9,87.4
Cyb5r3,3,83.4,72.2
Csnk1g3,1,120 (active),87.4
Csnk1g3,2,135 (active),96.5
Csnk1g3,3,69.6,49
Csnk1g3,4,58.1,84.1
Csnk1g3,5,72.1,87.9
Csnk1g3,6,71.2,102
1700024B05Rik,1,71.5,66.6
1700024B05Rik,2,105,51.4
1700024B05Rik,3,82.4,90.7
Mmd2,1,146 (active),89.2
Mmd2,2,51.5,52.4
Mmd2,3,87,75.7
Eva1a,1,33.1,60.3
Eva1a,2,67.2,98.5
Eva1a,3,259 (active),165
Eva1a,4,223 (active),91.1
Eva1a,5,80.2,79.9
Eva1a,6,78.4,102
Hectd3,1,83.2,75.2
Hectd3,2,24.5,32.2
Hectd3,3,45.7,41.8
Gypc,1,82.4,71.3
Gypc,2,78.2,96.2
Gypc,3,92.3,77.2
